PubChem BioAssay AID1259405, NCATS | 2018

Purpose: 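Mouse-designed siRNAs used to find CHO productivity engineering targets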 (primary screen)
Cells: Chinese hamster CHO-K1 ovary cells with stable secreted eGFP expression
Reagent: single siRNA against mouse genes, 0.8 pmol siRNA per well (2 µl of 400 nM stock)
Duration: 3 days
Read-out: 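Per-well intracellular GFP measured by laser scanning cytometry, plus viability from ATP luminescence, each relative to plate median of non-targeting control wells, in %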
Direction: GFP, % of control: higher = more GFP per well, higher productivity; viability (ATP), % of control: higher = more viable cells (more ATP)
Hit rule: 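a knock-down is called active if GFP reaches 120% or more of non-targeting control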
Shown is an unselected part of about 50,000 reagents. Over the whole deposit, about 4,000 (8%) were called active. 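Mouse siRNA library applied to hamster cells; one well for each siRNA.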 Entries without a mark were called inactive. Reagents against one gene are numbered here.

The opening 11 entries as a preview:
gene,reagent,"GFP, % of control","viability (ATP), % of control"
Gdf15,1,48.7,42.7
Gdf15,2,62.2,57.7
Gdf15,3,94.7,55
Mapk12,1,79.3,49.6
Usf1,1,38.1,82.9
Usf1,2,79.4,92.5
Usf1,3,54.5,103
Aard,1,95.9,81.4
Aard,2,82.5,92.9
Aard,3,115,81.7
Khdrbs3,1,85.3,93.6

The listing, repeating the preview:
gene,reagent,"GFP, % of control","viability (ATP), % of control"
Gdf15,1,48.7,42.7
Gdf15,2,62.2,57.7
Gdf15,3,94.7,55
Mapk12,1,79.3,49.6
Usf1,1,38.1,82.9
Usf1,2,79.4,92.5
Usf1,3,54.5,103
Aard,1,95.9,81.4
Aard,2,82.5,92.9
Aard,3,115,81.7
Khdrbs3,1,85.3,93.6
Khdrbs3,2,55.6,80.7
Khdrbs3,3,55.6,90.7
Or2a57,1,85,62.7
Or2a57,2,95.5,57.1
Or2a57,3,31.6,29.3
Xpa,1,85.7,79.3
Xpa,2,89.9,83.2
Zfp119b,1,93.8,73.7
Zfp119b,2,44.5,61.2
Zfp119b,3,75.3,91.8
Gpc6,1,70.4,61.9
Gpc6,2,63.1,66.6
Gpc6,3,81.8,54.4
Tomm40,1,64.7,78.1
Tomm40,2,96.6,101
Tomm40,3,169 (active),140
H2-M9,1,54.9,63
H2-M9,2,87.9,76.3
H2-M9,3,73,75.2
Mob3b,1,99.3,87.3
Mob3b,2,121 (active),81.1
Hnrnpa3,1,53.8,34.9
Hnrnpa3,2,49.5,59.4
Hnrnpa3,3,70.5,70.5
Or4d10b,1,101,92.7
Or4d10b,2,96.2,97
Or4d10b,3,51.4,102
Dll3,1,140 (active),76.1
Dll3,2,71.6,81.9
Dll3,3,87.8,88.1
Nap1l4,1,79.1,78.7
Nap1l4,2,111,66.8
Nap1l4,3,89,83.8
Acsm5,1,60.2,43.6
Acsm5,2,67.1,73.8
Acsm5,3,56.8,55.3
Zfp804a,1,92.7,93
Zfp804a,2,36.4,35
Zfp804a,3,74.5,89.8
Lgals8,1,85.3,60.3
Lgals8,2,35.5,50.1
Lgals8,3,52.7,61.1
Lmln,1,79.3,93.3
Lmln,2,51.4,38.1
Reg3g,1,66.6,61.6
Reg3g,2,71,62.3
Reg3g,3,68.4,56.8
Hoxa10,1,69.5,95.9
Hoxa10,2,110,94.1
Hoxa10,3,105,88.4
Ca3,1,85.7,103
Ca3,2,56.4,68.4
Galk2,1,68.8,43.7
Galk2,2,37.7,80.7
Galk2,3,71.6,76.4
Or14c40,1,150 (active),96.5
Or14c40,2,92.4,55.3
Or14c40,3,69.1,79.7
C130021I20Rik,1,65.9,67.1
C130021I20Rik,2,74,97.5
C130021I20Rik,3,87.9,95.6
Crybb2,1,96,71.3
Crybb2,2,88.4,77.1
Crybb2,3,140 (active),133
Or1f19,1,48.8,71.9
Or1f19,2,72.3,65.9
Or1f19,3,56.3,94
Fbrsl1,1,69,67.3
Fbrsl1,2,71.4,72.9
Fbrsl1,3,72.9,76.9
Fdx1,1,102,87.2
Fdx1,2,74.1,77.7
Fdx1,3,72,88.3
Zfp668,1,48.3,50.6
Zfp668,2,78.2,69.5
Zfp668,3,83.1,86.9
E130308A19Rik,1,65.2,85.3
E130308A19Rik,2,58.4,40.5
E130308A19Rik,3,103,69.1
Nudt14,1,104,102
Nudt14,2,74.8,58.1
Nudt14,3,61.6,70.7
Gm11545,1,179 (active),176
Gm11545,2,97.1,96.8
Gm11545,3,59.6,82.4
Crtap,1,58.8,68.5
Crtap,2,96.8,97
Crtap,3,80.4,84.4
D130020L05Rik,1,83.1,63.3
D130020L05Rik,2,79.1,63.1
D130020L05Rik,3,115,116
Cldn3,1,81.5,42.9
Cldn3,2,98.1,93.8
Cldn3,3,125 (active),94.8
Capn9,1,60.8,76.5
Capn9,2,68.1,79.3
Capn9,3,64.5,66.8
